These are yes or no findings as the source states them, for the method shown. Some entries that bind do so weakly or less than the wild type.
Columns and labels:
[1] = target: 食蟹猴SIRPα (XP_015313155 …: tyrosine-protein phosphatase non-receptor type substrate 1 isoform X2 [Macaca fascicularis])，过表达于CHO-K1稳定细胞株 (Macaca fascicularis); experiment: flow cytometry screen on CHO-K1 cells overexpressing cynomolgus SIRPα
[2] = target: 食蟹猴SIRPα (XP_015313155 …: tyrosine-protein phosphatase non-receptor type substrate 1 isoform X2 [Macaca fascicularis])，过表达于CHO-K1稳定细胞株 (Macaca fascicularis); experiment: flow cytometry on CHO-K1 cells overexpressing cynomolgus SIRPα, purified antibody

binding [1]: binds
binding [2]: binds
B1: 杂交瘤细胞株12G6产生的抗人SIRPα单克隆抗体 (antibody, IgG2b, V domains shown)
VH: QIQLVQSGPELKKPGETVKISCKASGYTFTNYGMHWVKQAPGKDLKWMGWINTYTGEPTNADDFKGRFAFSLETSDRTAFLQINNLKNEDTATYFCARGHHYGNYAWFAYWGQGTLVTVSA
VL: DIVMTQSHKFMSTSVGDRVSITCKASQDVSLAVAWYQQKPGQSPKVLIYWASTRHTGVPDRFAGSGSGTDYTLTISSVQAEDLALYYCQQHYSTPWTFGGGTKLEIN

Reference: CN110734897A
